Where a chain is given by its changes, count along the chain named. The exact form of at least one protein or probe is not confirmed. For some of these results: A weaker result is weaker than the reference pair of the same experiment. For some of these results: At least one verdict was read from the data and is not stated in words by the source. Where a protein sequence is shown, tags need not be part of it. For some of these results: Whether high values mean tight binding is not given here for every scale.
What was measured:
Assay in all cases: EMSA
[1] = target: T1, RadD F393A (Escherichia coli) (UniProt P33919); settings: range for the group; 20 mM Bis-Tris pH 6.5, 50 mM NaCl, 15% glycerol, 10 mM beta-mercaptoethanol, 37 C 30 min, 33 nM HJ, 0-20 uM RadD; 8% native PAGE in 0.5x TBE; text says 'branched DNA'; recombinant protein; folded or branched DNA
T1 sequence (looked up, limits assumed): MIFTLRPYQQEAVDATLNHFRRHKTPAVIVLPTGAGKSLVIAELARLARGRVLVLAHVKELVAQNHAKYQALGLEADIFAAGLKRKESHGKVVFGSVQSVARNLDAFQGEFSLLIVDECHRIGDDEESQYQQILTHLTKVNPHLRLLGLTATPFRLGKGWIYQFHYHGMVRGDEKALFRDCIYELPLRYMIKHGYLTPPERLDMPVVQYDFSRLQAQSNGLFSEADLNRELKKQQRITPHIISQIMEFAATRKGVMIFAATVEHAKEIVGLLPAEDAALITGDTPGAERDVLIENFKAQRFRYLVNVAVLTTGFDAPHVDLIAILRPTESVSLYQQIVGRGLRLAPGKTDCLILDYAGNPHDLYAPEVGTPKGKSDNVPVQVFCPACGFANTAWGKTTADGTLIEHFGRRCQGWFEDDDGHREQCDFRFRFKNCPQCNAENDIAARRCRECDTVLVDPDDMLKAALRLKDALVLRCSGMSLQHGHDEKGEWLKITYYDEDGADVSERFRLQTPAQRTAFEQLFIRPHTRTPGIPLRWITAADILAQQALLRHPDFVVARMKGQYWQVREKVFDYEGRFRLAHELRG

[2] = target: T2, RadD F407A (Escherichia coli) (UniProt P33919); settings: range for the group; 20 mM Bis-Tris pH 6.5, 50 mM NaCl, 15% glycerol, 10 mM beta-mercaptoethanol, 37 C 30 min, 33 nM HJ, 0-20 uM RadD; 8% native PAGE in 0.5x TBE; text says 'branched DNA'; recombinant protein; folded or branched DNA
T2 sequence (looked up, limits assumed): T1 sequence (looked up, limits assumed) with A393F, F407A

[3] = target: T3, RadD K396A (Escherichia coli) (UniProt P33919); settings: range for the group; 20 mM Bis-Tris pH 6.5, 50 mM NaCl, 15% glycerol, 10 mM beta-mercaptoethanol, 37 C 30 min, 33 nM HJ, 0-20 uM RadD; 8% native PAGE in 0.5x TBE; text says 'branched DNA'; recombinant protein; folded or branched DNA
T3 sequence (looked up, limits assumed): T1 sequence (looked up, limits assumed) with A393F, K396A

[4] = target: T4, RadD K488A (Escherichia coli) (UniProt P33919); settings: 20 mM Bis-Tris pH 6.5, 50 mM NaCl, 15% glycerol, 10 mM beta-mercaptoethanol, 37 C 30 min, 33 nM HJ, 0-20 uM RadD; 8% native PAGE in 0.5x TBE; text says 'branched DNA'; recombinant protein; folded or branched DNA
T4 sequence (looked up, limits assumed): T1 sequence (looked up, limits assumed) with A393F, K488A

[5] = target: T5, RadD K493A (Escherichia coli) (UniProt P33919); settings: range for the group; 20 mM Bis-Tris pH 6.5, 50 mM NaCl, 15% glycerol, 10 mM beta-mercaptoethanol, 37 C 30 min, 33 nM HJ, 0-20 uM RadD; 8% native PAGE in 0.5x TBE; text says 'branched DNA'; recombinant protein; folded or branched DNA
T5 sequence (looked up, limits assumed): T1 sequence (looked up, limits assumed) with A393F, K493A

[6] = target: T6, RadD R428A (Escherichia coli) (UniProt P33919); settings: 20 mM Bis-Tris pH 6.5, 50 mM NaCl, 15% glycerol, 10 mM beta-mercaptoethanol, 37 C 30 min, 33 nM HJ, 0-20 uM RadD; 8% native PAGE in 0.5x TBE; text says 'branched DNA'; recombinant protein; folded or branched DNA
T6 sequence (looked up, limits assumed): T1 sequence (looked up, limits assumed) with A393F, R428A

[7] = target: T7, RadD R507A (Escherichia coli) (UniProt P33919); settings: range for the group; 20 mM Bis-Tris pH 6.5, 50 mM NaCl, 15% glycerol, 10 mM beta-mercaptoethanol, 37 C 30 min, 33 nM HJ, 0-20 uM RadD; 8% native PAGE in 0.5x TBE; text says 'branched DNA'; recombinant protein; folded or branched DNA
T7 sequence (looked up, limits assumed): T1 sequence (looked up, limits assumed) with A393F, R507A

CCGCTACCAGTGATCACCAATGGATTGCTAGGACATCTTTGCCCACCTGCAGGTTCACCC / TGGGTGAACCTGCAGGTGGGCAAAGATGTCCTAGCAATCCATTGTCTATGACGTCAAGCTC / GAGCTTGACGTCATAGACAATGGATTGCTAGGACATCTTTGCCGTCTTGTCAATATCGGC / TGCCGATATTGACAAGACGGCAAAGATGTCCTAGCAATCCATTGGTGATCACTGGTAGCGG [Holliday junction (HJ)]
binding result [1]: binds more weakly
binding result [2]: binds more weakly
binding result [3]: binds more weakly
binding signal [4]: 31 % of WT
binding result [5]: binds more weakly
binding signal [6]: 34 % of WT
binding result [7]: binds more weakly
